Measurements taken from the supplement of paper PMC8728848.
The list shows a part of the results.

Key:
Experiment in all cases: glycan array binding signal (z-score within array); higher = stronger binding
Details in all cases: glycan notation: IUPAC condensed, linker removed
[1] = biological target: Neu5Ac(a2-3)Gal(b1-4)GlcNAc(b1-2)[Neu5Ac(a2-3)Gal(b1-4)GlcNAc(b1-4)]Man(a1-3)[GlcNAc(b1-4)][Neu5Ac(a2-3)Gal(b1-4)GlcNAc(b1-2)[Neu5Ac(a2-3)Gal(b1-4)GlcNAc(b1-6)]Man(a1-6)]Man(b1-4)GlcNAc(b1-4)GlcNAc
Procedure, shortened: (§1)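 Glycan array data came from 3228 arrays in the Consortium for Functional Glycomics database, and only arrays with an available protein sequence were kept. Glycan names were put into IUPAC-condensed notation, and columns mapping to the same glycan were averaged. The binding signal is a within-array Z-score, averaged across arrays of one protein sequence run at different concentrations or buffers and across linkers. A negative Z-score can be read as non-binding.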

[2] = biological target: Neu5Ac(a2-3)Gal(b1-4)GlcNAc(b1-2)[Neu5Ac(a2-3)Gal(b1-4)GlcNAc(b1-4)]Man(a1-3)[GlcNAc(b1-4)][Neu5Ac(a2-3)Gal(b1-4)GlcNAc(b1-4)Man(a1-6)]Man(b1-4)GlcNAc(b1-4)GlcNAc
Procedure, shortened: as §1

[3] = biological target: Neu5Ac(a2-3)Gal(b1-4)GlcNAc(b1-2)[Neu5Ac(a2-3)Gal(b1-4)GlcNAc(b1-6)]Man(a1-6)[Neu5Ac(a2-3)Gal(b1-4)GlcNAc(b1-2)Man(a1-3)]Man(b1-4)GlcNAc(b1-4)GlcNAc
Procedure, shortened: as §1

[4] = biological target: Neu5Ac(a2-3)Gal(b1-4)GlcNAc(b1-2)[Neu5Ac(a2-3)Gal(b1-4)GlcNAc(b1-6)]Man(a1-6)[Neu5Ac(a2-3)Gal(b1-4)GlcNAc(b1-2)Man(a1-3)][GlcNAc(b1-4)]Man(b1-4)GlcNAc(b1-4)GlcNAc
Procedure, shortened: as §1

[5] = biological target: Neu5Ac(a2-3)Gal(b1-4)GlcNAc(b1-3)Gal
Procedure, shortened: as §1

[6] = biological target: Neu5Ac(a2-3)Gal(b1-4)GlcNAc(b1-3)Gal(b1-3)GlcNAc
Procedure, shortened: as §1

[7] = biological target: Neu5Ac(a2-3)Gal(b1-4)GlcNAc(b1-3)Gal(b1-4)GlcNAc
Procedure, shortened: as §1

[8] = biological target: Neu5Ac(a2-3)Gal(b1-4)GlcNAc(b1-3)Gal(b1-4)GlcNAc(b1-2)Man(a1-3)[Neu5Ac(a2-3)Gal(b1-4)GlcNAc(b1-3)Gal(b1-4)GlcNAc(b1-2)Man(a1-6)]Man(b1-4)GlcNAc(b1-4)GlcNAc
Procedure, shortened: as §1

[9] = biological target: Neu5Ac(a2-3)Gal(b1-4)GlcNAc(b1-3)Gal(b1-4)GlcNAc(b1-3)Gal(b1-4)GlcNAc
Procedure, shortened: as §1

[10] = biological target: Neu5Ac(a2-3)Gal(b1-4)GlcNAc(b1-3)Gal(b1-4)GlcNAc(b1-3)Gal(b1-4)GlcNAc(b1-2)Man(a1-3)[Neu5Ac(a2-3)Gal(b1-4)GlcNAc(b1-3)Gal(b1-4)GlcNAc(b1-3)Gal(b1-4)GlcNAc(b1-2)Man(a1-6)]GalNAc
Procedure, shortened: as §1

[11] = biological target: Neu5Ac(a2-3)Gal(b1-4)GlcNAc(b1-3)Gal(b1-4)GlcNAc(b1-3)GalNAc
Procedure, shortened: as §1

[12] = biological target: Neu5Ac(a2-3)Gal(b1-4)GlcNAc(b1-3)Gal(b1-4)GlcNAc(b1-3)[Neu5Ac(a2-3)Gal(b1-4)GlcNAc(b1-3)Gal(b1-4)GlcNAc(b1-6)]GalNAc
Procedure, shortened: as §1

[13] = biological target: Neu5Ac(a2-3)Gal(b1-4)GlcNAc(b1-3)Gal(b1-4)GlcNAc(b1-6)[Gal(b1-3)]GalNAc
Procedure, shortened: as §1

[14] = biological target: Neu5Ac(a2-3)Gal(b1-4)GlcNAc(b1-3)Gal(b1-4)[Fuc(a1-3)]GlcNAc
Procedure, shortened: as §1

[15] = biological target: Neu5Ac(a2-3)Gal(b1-4)GlcNAc(b1-3)GalNAc
Procedure, shortened: as §1

[16] = biological target: Neu5Ac(a2-3)Gal(b1-4)GlcNAc(b1-3)[Neu5Ac(a2-3)Gal(b1-4)GlcNAc(b1-6)]GalNAc
Procedure, shortened: as §1

[17] = biological target: Neu5Ac(a2-3)Gal(b1-4)GlcNAc(b1-6)GalNAc
Procedure, shortened: as §1

[18] = biological target: Neu5Ac(a2-3)Gal(b1-4)GlcNAc(b1-6)[Gal(b1-3)]GalNAc
Procedure, shortened: as §1

[19] = biological target: Neu5Ac(a2-3)Gal(b1-4)GlcNAc(b1-6)[Neu5Ac(a2-3)Gal(b1-3)]GalNAc
Procedure, shortened: as §1

[20] = biological target: Neu5Ac(a2-3)Gal(b1-4)GlcNAc6S
Procedure, shortened: as §1

[21] = biological target: Neu5Ac(a2-3)Gal(b1-4)[Fuc(a1-3)]GlcNAc
Procedure, shortened: as §1

[22] = biological target: Neu5Ac(a2-3)Gal(b1-4)[Fuc(a1-3)]GlcNAc(b1-2)Man
Procedure, shortened: as §1

[23] = biological target: Neu5Ac(a2-3)Gal(b1-4)[Fuc(a1-3)]GlcNAc(b1-3)Gal
Procedure, shortened: as §1

[24] = biological target: Neu5Ac(a2-3)Gal(b1-4)[Fuc(a1-3)]GlcNAc(b1-3)Gal(b1-4)GlcNAc
Procedure, shortened: as §1

[25] = biological target: Neu5Ac(a2-3)Gal(b1-4)[Fuc(a1-3)]GlcNAc(b1-3)Gal(b1-4)[Fuc(a1-3)]GlcNAc(b1-3)Gal(b1-4)[Fuc(a1-3)]GlcNAc
Procedure, shortened: as §1

[26] = biological target: Neu5Ac(a2-3)Gal(b1-4)[Fuc(a1-3)]GlcNAc(b1-3)GalNAc
Procedure, shortened: as §1

[27] = biological target: Neu5Ac(a2-3)Gal(b1-4)[Fuc(a1-3)]GlcNAc(b1-6)[Gal(b1-3)]GalNAc
Procedure, shortened: as §1

[28] = biological target: Neu5Ac(a2-3)Gal(b1-4)[Fuc(a1-3)]GlcNAc(b1-6)[Neu5Ac(a2-3)Gal(b1-3)]GalNAc
Procedure, shortened: as §1

[29] = biological target: Neu5Ac(a2-3)Gal(b1-4)[Fuc(a1-3)]GlcNAc6S
Procedure, shortened: as §1

[30] = biological target: Neu5Ac(a2-3)Gal6S(b1-4)GlcNAc
Procedure, shortened: as §1

[31] = biological target: Neu5Ac(a2-3)Gal6S(b1-4)[Fuc(a1-3)]GlcNAc
Procedure, shortened: as §1

Neu5Ac(a2-3)GalNAc = biological target: Neu5Ac(a2-3)GalNAc
Procedure, shortened: as §1

[32] = biological target: Neu5Ac(a2-3)GalNAc(b1-4)GlcNAc
Procedure, shortened: as §1

[33] = biological target: Neu5Ac(a2-3)[GalNAc(b1-4)]Gal(b1-4)Glc
Procedure, shortened: as §1

[34] = biological target: Neu5Ac(a2-3)[GalNAc(b1-4)]Gal(b1-4)GlcNAc
Procedure, shortened: as §1

[35] = biological target: Neu5Ac(a2-3)[GalNAc(b1-4)]Gal(b1-4)GlcNAc(b1-3)GalNAc
Procedure, shortened: as §1

[36] = biological target: Neu5Ac(a2-3)[Neu5Ac(a2-6)]GalNAc
Procedure, shortened: as §1

B1: AT3G44510(29) (Arabidopsis thaliana), F4J341 (protein)
chain: MEEHLQGRIKLHDGRYLAYKERGVPKDDAKFTIVLVHGFGSSKDMNFNVSQELVNEIGIYFVLYDRAGYGESDPNPKRSLKSEAYDVQELADGLEIGSRFYLIGISMGSYTVWSCLKHIPQRLAGVAMVAPVVNFRWPSIPKSLMPKDYRREVAKWSVWIANYFPGLLQWLVTQNMFSTTSMLEKNPVYFNDQDIEVLKHIKGFPMLTKEKLRERGVFGTLRSDFLVAFGDWDFDPADLPDPSLSGPEKGSSSVHIWQGYEDKVMPFQLQRCLCRKLPWIRYHEVPKGGHLIVHYDGICDAILKSLLLGEDLPMYKPKAVITEPA
For B1, the “glycan array binding signal (z-score)” value [1] was -0.124, the “glycan array binding signal (z-score)” value [2] was -0.202 and the “glycan array binding signal (z-score)” value [3] was 0.09. The “glycan array binding signal (z-score)” value [4] was -0.209, the “glycan array binding signal (z-score)” value [5] was 0.688 and the “glycan array binding signal (z-score)” value [6] was 0.06. For the same binder, the “glycan array binding signal (z-score)” value [7] was 0.145, the “glycan array binding signal (z-score)” value [8] was -0.8 and the “glycan array binding signal (z-score)” value [9] was -0.657. The “glycan array binding signal (z-score)” value [10] was 0.29, the “glycan array binding signal (z-score)” value [11] was -0.224 and the “glycan array binding signal (z-score)” value [12] was -0.442. For the same binder, the “glycan array binding signal (z-score)” value [13] was -0.343, the “glycan array binding signal (z-score)” value [14] was -0.1 and the “glycan array binding signal (z-score)” value [15] was -0.249. For the same binder, the “glycan array binding signal (z-score)” value [16] was -0.474, the “glycan array binding signal (z-score)” value [17] was -0.429 and the “glycan array binding signal (z-score)” value [18] was -0.457. For the same binder, the “glycan array binding signal (z-score)” value [19] was -0.853, the “glycan array binding signal (z-score)” value [20] was -0.36 and the “glycan array binding signal (z-score)” value [21] was -0.331. The “glycan array binding signal (z-score)” value [22] was -0.046, the “glycan array binding signal (z-score)” value [23] was -0.706 and the “glycan array binding signal (z-score)” value [24] was 1.04. For the same binder, the “glycan array binding signal (z-score)” value [25] was 0.047, the “glycan array binding signal (z-score)” value [26] was 1.12 and the “glycan array binding signal (z-score)” value [27] was 0.133. The “glycan array binding signal (z-score)” value [28] was -0.199, the “glycan array binding signal (z-score)” value [29] was 0.419 and the “glycan array binding signal (z-score)” value [30] was 1.08. The “glycan array binding signal (z-score)” value [31] was -0.314, the “glycan array binding signal (z-score)” value (Neu5Ac(a2-3)GalNAc) was 1.08 and the “glycan array binding signal (z-score)” value [32] was -0.26. The “glycan array binding signal (z-score)” value [33] was -0.393, the “glycan array binding signal (z-score)” value [34] was -0.12 and the “glycan array binding signal (z-score)” value [35] was 0.557. For the same binder, the “glycan array binding signal (z-score)” value [36] was 0.401.
